In PubChem BioAssay AID330 (DTP/NCI, 2004):
The list is a part of this screen's results and no random one: it gathers tests that were run many times, whatever their T/C, doses with no T/C, and many T/C values between a quarter and a half above the control. Other doses and runs of a compound stand elsewhere. T/C gives the treated animals as a percentage of the vehicle group. Some doses have a count of surviving animals in place of a T/C: the source holds a T/C of zero for them, seemingly a mark for toxic or unscored doses. Some survivor counts are full or nearly so, which does not show that the dose was tolerated: survival well below the control is almost never listed, so the zero probably covers shortened survival too. Survivors were counted at the toxicity check, usually on the fifth day, unless a day is given; later deaths do not show. Schedules are NCI's codes, read here as Q, the interval in days (D) or hours (H), X, the number of doses. Some doses were run more than once; their values stand side by side, smallest first. Additions like (4×) stand for listed records that agree. Where survival is the endpoint, the PubChem record calls one and a half times the control and up active, and a quarter to a half above the control has no call in these data; cut-offs in other NCI protocols can differ. Some T/C values are followed by the survivors on the day toxicity was checked, most often the fifth; without a count, all were alive then.

Test system: P388 leukemia ip, CD2F1 mice, survival T/C
Assay: NCI In Vivo Anticancer Drug Screen. Data for tumor model P388 Leukemia (intraperitoneal) in CD2F1 (CDF1) mice
Conditions: T/C endpoint: median survival time, higher T/C = longer survival
[1] = dose: 200.0 mg/kg/injection, schedule: Q01DX005 (ip), vehicle: saline
[2] = dose: 64.0 mg/kg/injection, schedule: Q01DX009 (ip), vehicle: Klucel (hydroxypropylcellulose) (HPC)
[3] = dose: 6.25 mg/kg/injection, schedule: Q01DX009 (ip), vehicle: saline with Tween-80
[4] = dose: 25.0 mg/kg/injection, schedule: Q01DX009 (ip), vehicle: saline with Tween-80
[5] = dose: 120.0 mg/kg/injection, schedule: Q01DX005 (ip), vehicle: saline with Tween-80
[6] = dose: 240.0 mg/kg/injection, schedule: Q01DX005 (ip), vehicle: saline with Tween-80
[7] = dose: 200.0 mg/kg/injection, schedule: Q04DX003 (ip), vehicle: water

`O=[N+]([O-])c1ccc(O)c([N+](=O)[O-])c1` was tested, and the survivor count (dose: 50.0 mg/kg/injection, schedule: Q04DX003 (ip), vehicle: saline with Tween-80) was 6 of 6, the survivor count (dose: 64.0 mg/kg/injection, schedule: Q01DX005 (ip), vehicle: saline with Tween-80) was 0 of 5 and the survivor count (dose: 100.0 mg/kg/injection, schedule: Q04DX003 (ip), vehicle: saline with Tween-80) was 0 of 6. The survivor count (dose: 128.0 mg/kg/injection, schedule: Q01DX005 (ip), vehicle: saline with Tween-80) was 0 of 5.

In the case of `OC1(c2ccncc2)C=CCC1` (stereo not drawn), the survivor count (dose: 200.0 mg/kg/injection, schedule: Q04DX002 (ip), vehicle: saline with Tween-80) is reported as 5 of 6 and the survivor count (dose: 400.0 mg/kg/injection, schedule: Q04DX002 (ip), vehicle: saline with Tween-80) is reported as 0 of 6.

With `CCN(CC)CCCC(C)NC(=O)Nc1cc(OC)cc2cccnc12` (stereo not drawn) the survivor count (dose: 100.0 mg/kg/injection, schedule: Q01DX005 (ip), vehicle: saline) was 3 of 5 and the survivor count [1] was 0 of 5.

`O=C(N/N=c1/sc2ccccc2n1Cc1ccccc1)c1ccncc1` was tested, and the survivor count (dose: 50.0 mg/kg/injection, schedule: Q01DX009 (ip), vehicle: Klucel (hydroxypropylcellulose) (HPC)) was 6 of 6, the survivor count (dose: 100.0 mg/kg/injection, schedule: Q01DX009 (ip), vehicle: Klucel (hydroxypropylcellulose) (HPC)) was 6 of 6 and the survivor count (dose: 200.0 mg/kg/injection, schedule: Q01DX009 (ip), vehicle: Klucel (hydroxypropylcellulose) (HPC)) was 2 of 6.

In the case of `COc1cc2c(c(OC)c1OC)-c1ccc(SC)c(=O)cc1[C@@H](NC1OCC(O)C(O)C1O)CC2` (stereo partly drawn), the T/C (dose: 12.0 mg/kg/injection, schedule: Q01DX009 (ip), vehicle: other) is reported as 145 % of control and the T/C (dose: 36.0 mg/kg/injection, schedule: Q01DX009 (ip), vehicle: other) is reported as 148 % of control.

In the case of `O=C(CCl)NC(Cc1ccc(N(CCCl)CCCl)cc1)C(=O)O` (stereo not drawn), the T/C (dose: 2.0 mg/kg/injection, schedule: Q01DX009 (ip), vehicle: Klucel (hydroxypropylcellulose) (HPC)) is reported as 105, 113, 134, 151 % of control, the T/C (dose: 4.0 mg/kg/injection, schedule: Q01DX009 (ip), vehicle: Klucel (hydroxypropylcellulose) (HPC)) is reported as 106, 113, 127, 150 % of control and the T/C (dose: 8.0 mg/kg/injection, schedule: Q01DX009 (ip), vehicle: Klucel (hydroxypropylcellulose) (HPC)) is reported as 116, 127, 132, 180 % of control [5 of 6 alive]. For the same compound, the T/C (dose: 16.0 mg/kg/injection, schedule: Q01DX001 (ip), vehicle: Klucel (hydroxypropylcellulose) (HPC)) was 128 % of control, the T/C (dose: 16.0 mg/kg/injection, schedule: Q01DX009 (ip), vehicle: Klucel (hydroxypropylcellulose) (HPC)) was 117, 141, 153, 243 % of control and the T/C (dose: 32.0 mg/kg/injection, schedule: Q01DX001 (ip), vehicle: Klucel (hydroxypropylcellulose) (HPC)) was 131 % of control. The T/C (dose: 32.0 mg/kg/injection, schedule: Q01DX009 (ip), vehicle: Klucel (hydroxypropylcellulose) (HPC)) was 115 [5 of 6 alive], 142, 182, 185 % of control, the T/C (dose: 64.0 mg/kg/injection, schedule: Q01DX001 (ip), vehicle: Klucel (hydroxypropylcellulose) (HPC)) was 146 % of control and the T/C [2] was 142 % of control. For the same compound, the survivor count [2] was 5 of 6, the T/C (dose: 128.0 mg/kg/injection, schedule: Q01DX001 (ip), vehicle: Klucel (hydroxypropylcellulose) (HPC)) was 146 % of control and the survivor count (dose: 256.0 mg/kg/injection, schedule: Q01DX001 (ip), vehicle: Klucel (hydroxypropylcellulose) (HPC)) was 0 of 6.

With `Clc1ccc(-c2nnc3ncccn23)cc1` the survivor count (dose: 400.0 mg/kg/injection, schedule: Q01DX001 (ip), vehicle: saline with Tween-80) was 0 of 6.

In the case of `C=CCN(CC=C)c1cc(Cl)nnc1Cl`, the survivor count (dose: 400.0 mg/kg/injection, schedule: Q01DX009 (ip), vehicle: other) is reported as 2 of 6.

For `Cc1ccc2nc(-c3ccc(CSC(=N)N)cc3)oc(=O)c2c1`, the survivor count [3] was 6 of 6, the survivor count (dose: 12.5 mg/kg/injection, schedule: Q01DX009 (ip), vehicle: saline with Tween-80) was 6 of 6 and the survivor count [4] was 6 of 6. For the same compound, the survivor count (dose: 200.0 mg/kg/injection, schedule: Q01DX009 (ip), vehicle: saline with Tween-80) was 0 of 6.

With `CC(C)[S][Pb]([c]1ccccc1)([c]1ccccc1)[c]1ccccc1` the survivor count (dose: 10.0 mg/kg/injection, schedule: Q01DX009 (ip), vehicle: gum acacia) was 5 of 6, the survivor count (dose: 20.0 mg/kg/injection, schedule: Q01DX009 (ip), vehicle: gum acacia) was 0 of 6 and the survivor count (dose: 25.0 mg/kg/injection, schedule: Q04DX003 (ip), vehicle: gum acacia) was 6 of 6.

For `CCO/C=C1/N=C(c2ccc(Cl)cc2)OC1=O`, the survivor count [5] was 4 of 6 and the survivor count [6] was 0 of 6.

For `O=C1C=CC(=Nc2ccc3c(c2)C(Br)c2ccccc2-3)O1` (stereo not drawn), the T/C [3] was 127 % of control and the survivor count [4] was 3 of 6.

With `Cc1ccc(O)c(O)c1` the T/C (dose: 50.0 mg/kg/injection, schedule: Q01DX009 (ip), vehicle: saline) was 96 [5 of 6 alive], 100, 101, 104, 106, 120 % of control, the T/C (dose: 100.0 mg/kg/injection, schedule: Q01DX009 (ip), vehicle: saline) was 96, 99, 108, 109, 111, 115 % of control [4 of 6 alive] and the T/C (dose: 200.0 mg/kg/injection, schedule: Q01DX009 (ip), vehicle: saline) was 95 [4 of 6 alive], 98 [5 of 6 alive], 108, 126 [5 of 6 alive], 128, 133 % of control. For the same compound, the survivor count (dose: 400.0 mg/kg/injection, schedule: Q01DX009 (ip), vehicle: saline) was 0 of 6 (2×) and the survivor count (dose: 600.0 mg/kg/injection, schedule: Q01DX009 (ip), vehicle: saline) was 0 of 6.

In the case of `CCCCCCCCCCCCCCCC(=O)NCCN(CC)CC`, the survivor count (dose: 50.0 mg/kg/injection, schedule: Q01DX009 (ip), vehicle: saline with Tween-80) is reported as 5 of 6.

With `O=C(c1ccccc1)N1OC12CCCCC2` the survivor count (dose: 200.0 mg/kg/injection, schedule: Q01DX005 (ip), vehicle: Klucel (hydroxypropylcellulose) (HPC)) was 3 of 6.

For `O=[N+]([O-])c1ccc(/C=C/C=C/C=C/C=C/c2ccc(S(=O)(=O)F)cc2Cl)c(Cl)c1`, the survivor count [5] was 6 of 6 and the survivor count [6] was 6 of 6.

For `COc1ccc2cc3n(cc-2c1=O)CCc1cc2c(cc1-3)OCO2`, the T/C (dose: 25.0 mg/kg/injection, schedule: Q04DX003 (ip), vehicle: water) was 132 % of control, the T/C (dose: 50.0 mg/kg/injection, schedule: Q04DX003 (ip), vehicle: water) was 135 and 141 % of control and the T/C (dose: 100.0 mg/kg/injection, schedule: Q04DX003 (ip), vehicle: water) was 141 % of control. The T/C [7] was 149 % of control, the survivor count [7] was 0 of 6 and the survivor count (dose: 400.0 mg/kg/injection, schedule: Q04DX003 (ip), vehicle: water) was 0 of 4 and 0 of 6.

`CC(C)c1ccc2c[n+]3ccccc3cc2c1` was tested, and the survivor count (dose: 25.0 mg/kg/injection, schedule: Q01DX005 (ip), vehicle: Klucel (hydroxypropylcellulose) (HPC)) was 0 of 5 and 2 of 5.

For `CC(CCC(=O)O)(c1ccc(OC(=O)Nc2cccc([N+](=O)[O-])c2)cc1)c1ccc(OC(=O)Nc2cccc([N+](=O)[O-])c2)cc1`, the survivor count (dose: 200.0 mg/kg/injection, schedule: Q01DX005 (ip), vehicle: saline with Tween-80) was 6 of 6.

In the case of `Cc1ccc2c(c1)C1(C)C=C(CN3CCN(C)CC3)C(=O)CC1O2` (stereo not drawn), the survivor count [1] is reported as 0 of 6.

`NC(=O)c1ccccc1OC(=O)Nc1ccc(F)cc1` was tested, and the survivor count [6] was 2 of 6.

In the case of `OC(COc1cccc2ccccc12)CN(CCCl)CCCl` (stereo not drawn), the T/C (dose: 1.25 mg/kg/injection, schedule: Q01DX009 (ip), vehicle: saline) is reported as 130 % of control, the T/C (dose: 2.5 mg/kg/injection, schedule: Q01DX009 (ip), vehicle: saline) is reported as 131 and 140 % of control and the T/C (dose: 5.0 mg/kg/injection, schedule: Q01DX009 (ip), vehicle: saline) is reported as 140 and 146 % of control. The T/C (dose: 10.0 mg/kg/injection, schedule: Q01DX009 (ip), vehicle: saline) was 144 and 149 % of control and the survivor count (dose: 40.0 mg/kg/injection, schedule: Q01DX009 (ip), vehicle: saline) was 2 of 6 and 5 of 6.

`CC1(NC(=O)N(CCCl)N=O)CCCC1` was tested, and the survivor count (dose: 25.0 mg/kg/injection, schedule: Q04DX003 (ip), vehicle: saline with Tween-80) was 6 of 6.
